{
  "sequences": {"note": "Sequences of proteins named here, by UniProt entry; tags and fusion partners are left off.", "UniProt P17302": "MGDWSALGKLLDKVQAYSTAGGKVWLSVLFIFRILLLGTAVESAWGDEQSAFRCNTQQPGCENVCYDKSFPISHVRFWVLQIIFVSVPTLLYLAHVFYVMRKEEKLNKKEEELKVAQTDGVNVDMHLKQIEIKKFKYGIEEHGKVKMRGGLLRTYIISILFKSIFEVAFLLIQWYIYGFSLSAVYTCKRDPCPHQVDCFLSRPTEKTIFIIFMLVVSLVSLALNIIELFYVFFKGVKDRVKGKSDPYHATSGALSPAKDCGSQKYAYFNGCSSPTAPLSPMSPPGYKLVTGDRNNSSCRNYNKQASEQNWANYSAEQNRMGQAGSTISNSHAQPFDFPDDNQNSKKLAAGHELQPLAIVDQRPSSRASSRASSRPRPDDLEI"},
  "source": "paper PMC12730575",
  "binders": {"B1": {"name": "Ras-related protein Rab-31 (protein, UniProt Q13636 1-195)", "chain": "MMAIRELKVCLLGDTGVGKSSIVCRFVQDHFDHNISPTIGASFMTKTVPCGNELHKFLIWDTAGQERFHSLAPMYYRGSAAAVIVYDITKQDSFYTLKKWVKELKEHGPENIVMAIAGNKCDLSDIREVPLKDAKEYAESIGAIVVETSAKNAINIEELFQGISRQIPPLDPHENGNNGTIKVEKPTMQASRRCC"}},
  "target": "Connexin 43 (human (endogenous in human breast cancer cell lines; line of the co-IP not stated)) (UniProt P17302)",
  "assay": "co-IP; antibody (Cx43 CST#3512 or Rab31 proteintech#15485-1-AP; IgG as control) on protein A/G magnetic beads, protein supernatant of lysed cells rotated at 4 °C overnight, washed with PBST, Western blot; cell line not stated",
  "note": "No constants are given. Whether binding was seen depends on the method and setting. In cells and extracts the contact can be indirect. Some binding calls cover weakened binding; strength is not graded here.",
  "data": [
    {"binder": "B1", "values": [
      {"measurement": "binding", "result": "binds"}
    ]}
  ]
}
